The values below come from paper PMC10165233.

Amino acid sequences for entries named in this document (tags omitted).
UniProt O14980: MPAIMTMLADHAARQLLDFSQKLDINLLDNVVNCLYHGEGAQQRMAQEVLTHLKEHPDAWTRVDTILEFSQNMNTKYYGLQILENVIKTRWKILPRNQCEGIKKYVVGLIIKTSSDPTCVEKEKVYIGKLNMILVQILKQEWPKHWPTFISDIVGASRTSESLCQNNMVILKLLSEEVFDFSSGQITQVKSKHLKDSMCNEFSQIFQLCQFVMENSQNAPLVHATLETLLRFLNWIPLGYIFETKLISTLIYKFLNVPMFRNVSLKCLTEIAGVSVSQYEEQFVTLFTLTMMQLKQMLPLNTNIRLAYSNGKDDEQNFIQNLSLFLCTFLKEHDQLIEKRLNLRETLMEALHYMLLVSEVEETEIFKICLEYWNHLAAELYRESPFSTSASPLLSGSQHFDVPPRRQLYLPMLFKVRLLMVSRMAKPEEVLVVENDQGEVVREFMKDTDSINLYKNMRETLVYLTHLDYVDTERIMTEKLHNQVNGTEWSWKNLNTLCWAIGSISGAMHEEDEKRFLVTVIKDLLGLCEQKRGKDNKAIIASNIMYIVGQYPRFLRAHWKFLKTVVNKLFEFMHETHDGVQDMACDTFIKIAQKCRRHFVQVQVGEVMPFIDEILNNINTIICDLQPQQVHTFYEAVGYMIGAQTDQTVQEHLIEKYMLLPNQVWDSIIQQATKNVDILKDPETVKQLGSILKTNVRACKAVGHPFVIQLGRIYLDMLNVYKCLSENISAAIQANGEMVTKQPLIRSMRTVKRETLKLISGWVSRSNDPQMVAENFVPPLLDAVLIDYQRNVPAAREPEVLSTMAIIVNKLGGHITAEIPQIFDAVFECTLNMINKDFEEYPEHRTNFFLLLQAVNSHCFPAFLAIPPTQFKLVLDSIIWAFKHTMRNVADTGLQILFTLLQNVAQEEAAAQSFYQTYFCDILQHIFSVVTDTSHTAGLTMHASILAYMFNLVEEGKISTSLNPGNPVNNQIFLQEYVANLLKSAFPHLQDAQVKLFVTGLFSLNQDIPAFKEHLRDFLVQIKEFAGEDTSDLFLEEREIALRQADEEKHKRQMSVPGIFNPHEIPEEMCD

The target of experiment [1] is T1, basic leucine zipper transcription factor ATF (activating transcription factor)-like 2 (BATF2) (human (endogenous in HCT116 and CCD 841 CoN)) (UniProt Q8N1L9).
T1 sequence: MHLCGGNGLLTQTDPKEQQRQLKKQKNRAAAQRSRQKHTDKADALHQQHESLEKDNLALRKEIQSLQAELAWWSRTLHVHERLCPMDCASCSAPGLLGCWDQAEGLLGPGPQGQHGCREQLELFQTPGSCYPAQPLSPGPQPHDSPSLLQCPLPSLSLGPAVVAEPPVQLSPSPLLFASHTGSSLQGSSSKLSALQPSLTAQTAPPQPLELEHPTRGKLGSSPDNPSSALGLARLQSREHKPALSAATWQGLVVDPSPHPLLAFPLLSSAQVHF
Put plainly: co-IP; IgG or BATF2 antibody (2 µg) on Dynabeads protein G, 500 µg protein at 4°C overnight; eluate to Western blot; lysates of HCT116, C116 and A116 cells.

For experiment [2], the target named is T2, recombinant wild-type BATF2 (C116 cells) (UniProt Q8N1L9).
T2 sequence: T1 sequence
Described as above.

These are yes or no findings as the source states them, for the method shown. In cells and extracts the contact can be indirect. Some binding calls cover weakened binding; strength is not graded here.

For the substance “chromosome region maintenance 1 (CRM1) (from UniProt O14980 1-1071)”, the binding entry in experiment [1] and in experiment [2] was “binds” each time.
